The test is described as follows: qHTS Assay for Lipid Storage Modulators in Drosophila S3 Cells.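 On cell number change: cells counted by Cell Tracker Red CMTPX staining in the red channel.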 Particulars: BODIPY lipid droplet fluorescence, 18-24 h; for cell number change: measured here: cell count max response, cells fed with added oleic acid. In a few lines: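 Drosophila S3 cells loaded with oleic acid (400 uM, as added) and compounds at several concentrations; lipid droplets imaged by 488-nm laser-scanning cytometry, 500–530 nm intensity and object ratio to cell channel. Percent activity normalized to 20 uM Triacsin C.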
On the technique in general: Quantitative high-throughput screening tests each substance at several concentrations.

[1] abbreviates: measured here: lipid fluorescence (Fed channel) AC50, cells fed with added oleic acid.
[2] abbreviates: measured here: cell number channel AC50, cells fed with added oleic acid.

From PubChem BioAssay AID2685 (National Center for Advancing Translational Sciences (NCATS), 2010) come the findings set out here.

The list shows a part of the results. Further columns of the screen follow, without active or inactive calls. Most of these compounds were active or inconclusive in the main read-out, so they are no random draw. Words in brackets tell the shape of the fitted curve; partial curves, single points and poor fits give uncertain potencies.

For the molecule `COC(=O)c1ccc(-c2ccc(/C=N/N3C(=O)C4C5C=CC(C6CC56)C4C3=O)o2)cc1` (centres undefined), the AC50 under setting [1] is 25.9 µM [falling, partial curve, poor fit]. In the case of `COc1cc(C(C(=O)NCC2CCCO2)N(C(=O)Cn2nnc3ccccc32)c2ccc(C(C)=O)cc2)ccc1O` (centres undefined), under setting [1], the AC50 was 4.11 µM [falling, partial curve].

Take `COc1ccccc1OCc1nnc(SCC(N)=O)n1-c1ccccc1`: the cell number change came out at 11.9%. In addition, under setting [1], the half-maximal activity concentration (AC50) is 29.1 µM [rising, single point]. In the case of `COCCCN1C(=O)c2ccc(C(=O)N3CCN(c4ccccc4OC)CC3)cc2C1=O`, the cell number change amounted to 0.382%. The concentration at half-maximal activity (AC50) under setting [1] is 18.4 µM [rising, single point]. For `Cc1ccc(-n2c(C)nnc2SCC(=O)N(C)c2c(N)n(Cc3ccccc3)c(=O)[nH]c2=O)cc1`, the cell number change is -6.56%. Also, under setting [1], the concentration at half-maximal activity (AC50) was 29.1 µM [rising, single point]. On to `CS(=O)(=O)N(CCc1ccccc1)CC(=O)NCC1CCCO1` (centres undefined), for which the cell number change was -34.5%. Besides, the concentration at half-maximal activity (AC50) under setting [2] was 8.2 µM [falling, partial curve, poor fit]. `O=c1nc(N/N=C/C=C/c2ccccc2)cn[nH]1`: the cell number change was -47.7%. Further, the AC50 under setting [2] was 29.1 µM [falling, single point]. The half-maximal activity concentration (AC50) under setting [1] was 25.9 µM [falling, partial curve]. For `COc1ccc(-n2c(SCC(=O)NC3CC3)nc3ccccc3c2=O)cc1OC`, the cell number change was -11.4%. Under setting [1], the AC50 was 1.46 µM [rising, full curve].

Consider `CCCc1nnc2c(N(C)S(=O)(=O)c3ccccc3)nc3ccccc3n12`, for which the cell number change was -33%. In addition, the half-maximal activity concentration (AC50) under setting [2] is 11.6 µM [falling, single point]. For the same molecule, the AC50 under setting [1] is 0.00517 µM [rising, full curve, poor fit]. Turning to `COCCN(C(=O)c1csnn1)C(C(=O)NC1CCCCC1)c1ccccc1` (centres undefined), the cell number change is -7.62%. Moreover, under setting [1], the AC50 is 29.1 µM [rising, single point]. As to `CCNC(=O)Nn1c(-c2ccccc2)nc2ccccc2c1=O`, the cell number change was -11.3%. On to `O=C1N=C(N2CCN(c3ccccc3)CC2)S/C1=C\c1cn[nH]c1-c1ccccc1`, for which the cell number change was -28.1%. Moreover, the concentration at half-maximal activity (AC50) under setting [1] was 2.31 µM [rising, partial curve, poor fit]. In the case of `CCc1ccccc1NC(=O)c1cc(-c2ccco2)on1`, the cell number change was -5.42%. Turning to `Cc1ccc(N=CC2=C(O)CC(c3ccco3)CC2=O)cc1` (centres undefined), the cell number change was -51.5%. Besides, under setting [2], the AC50 was 5.8 µM [falling, partial curve]. Also, the half-maximal activity concentration (AC50) under setting [1] was 1.84 µM [falling, partial curve]. Take `O=C(CCN1CCc2ccccc21)c1ccc2c(c1)OCCO2`: the cell number change is -16.1%. In addition, under setting [1], the AC50 was 1.46 µM [rising, partial curve, poor fit].

Turning to `COc1ccc(/C=C/C(=O)OCC(=O)NCCNC(=O)COC(=O)/C=C/c2ccc(OC)cc2)cc1`, the cell number change amounted to 2.65%. Also, the AC50 under setting [1] was 11.6 µM [falling, partial curve]. As for `COc1ccc(-c2c(C)nn(-c3ccccc3)c2N)cc1`, the cell number change turned out to be 65.9%. For the same molecule, the AC50 under setting [2] was 10.3 µM [rising, partial curve]. As to `CC(C)Cn1c(=O)c(C(=O)NCc2ccccn2)c(O)c2ccccc21`, the AC50 under setting [2] was 0.116 µM [rising, full curve, poor fit] and the concentration at half-maximal activity (AC50) under setting [1] was 0.164 µM [rising, full curve]. As to `CCOC(=O)c1c(CN2CCN(CCO)CC2)n(C)c2cc(Br)c(OC)cc12`, the cell number change was -26.3%. Besides, the concentration at half-maximal activity (AC50) under setting [1] is 13 µM [falling, partial curve]. With `CC(NC(=O)c1ccc(F)cc1)c1ccccc1` (centres undefined), the cell number change was -1.53%. For `CCOC(=O)Cc1cc(=O)n2[nH]c(C)c(-c3ccccc3)c2n1`, the cell number change is 19.5%. Besides, under setting [1], the AC50 is 3.66 µM [rising, full curve, poor fit]. Consider `CCOc1ccc(C2C(C#N)=C(N)Oc3n[nH]c(C)c32)cc1OC(=O)C1CC1` (centres undefined), for which the cell number change turned out to be 60.4%. Moreover, the AC50 under setting [2] is 1.64 µM [rising, full curve]. The half-maximal activity concentration (AC50) under setting [1] is 6.51 µM [rising, single point]. For `CCCCN(C)CCCNC(=O)c1ccc2c(c1)N(CC)C(=O)c1ccccc1S2=O` (centres undefined), the cell number change came out at 38.7%. In addition, the AC50 under setting [2] is 6.51 µM [rising, full curve]. The half-maximal activity concentration (AC50) under setting [1] is 6.51 µM [rising, single point].

As to `COc1ccccc1NS(=O)(=O)c1cc(NC(=O)C(C)NC(N)=O)ccc1N1CCCC1` (centres undefined), the cell number change was found to be 21%. Besides, the AC50 under setting [1] was 18.4 µM [rising, single point]. `COc1cccc(C(C(=O)NC(C)(C)C)N(C(=O)CCC(=O)Nc2cc(C)on2)C2CC2)c1OC` (centres undefined): the cell number change was -0.934%. For `O=C(NCc1ccc(F)cc1)c1cc(S(=O)(=O)N2CCCCC2)c[nH]1`, the cell number change is 13.5%. Under setting [1], the AC50 was 13 µM [falling, single point]. Consider `COc1cccc(CSc2nnc(-c3ccco3)n2C)c1`, for which the cell number change was -26.6%. For the same molecule, under setting [2], the half-maximal activity concentration (AC50) was 1.64 µM [falling, full curve, poor fit].

For the molecule `CCn1c(N2CCN(C(=O)c3ccco3)CC2)nc2ccccc21`, the cell number change stood at 1.1%. Also, the AC50 under setting [1] was 0.13 µM [rising, full curve, poor fit]. Take `O=C(c1ccccc1/S(=N/S(=O)(=O)c1ccccc1)N1CCOCC1)N1CCOCC1` (centres undefined): the cell number change was found to be 2.07%. For the same molecule, the AC50 under setting [1] is 29.1 µM [falling, single point]. In the case of `O=C(CCC1CCCNC1)c1ccccc1` (centres undefined), the cell number change is -13.2%. In the case of `COC(=O)Cc1c(C)nc2nc(Cc3ccccc3)[nH]n2c1=O`, the cell number change amounted to 6.61%. In addition, the AC50 under setting [1] was 0.411 µM [falling, full curve].

As for `O=C(N/N=C/c1c(O)ccc2ccccc12)c1cccnc1`, the cell number change was -17%. In addition, the concentration at half-maximal activity (AC50) under setting [1] is 6.51 µM [falling, single point].

On to `Cc1cccc(N(CC(=O)NCCc2ccccc2)C(=O)c2csnn2)c1`, for which the cell number change is -7.98%. For `C=CCNC(=O)CSc1nc2sccc2c(=O)n1-c1ccccc1`, the cell number change was found to be 2.5%. Also, under setting [1], the concentration at half-maximal activity (AC50) is 1.03 µM [rising, full curve]. Take `Cc1cc2nc3n(c2cc1C)CC1CC(C(=O)NCc2ccccc2)N(C)C31` (centres undefined): the cell number change worked out at 22.7%. Under setting [1], the AC50 is 32.6 µM [rising, single point]. Take `Cn1nnnc1SCC(=O)NC(C)(C)C`: the cell number change was -11.3%. Under setting [1], the AC50 was 29.1 µM [rising, single point].

`CCN(CC)S(=O)(=O)c1cc(Cl)ccc1OC`: the cell number change is -19.2%. As for `O=C(c1ccc2nc(N3CCOCC3)sc2c1)N1CCC(Cc2ccccc2)CC1`, the cell number change was 108%. In addition, under setting [2], the half-maximal activity concentration (AC50) was 23.1 µM [rising, single point]. For the molecule `CCCCn1c(N)c(N(CC)C(=O)CSCc2ccc(C)cc2)c(=O)[nH]c1=O`, the cell number change came to 0.926%. Further, the concentration at half-maximal activity (AC50) under setting [1] is 35.5 µM [falling, single point].

A word on the AC50: it is the concentration giving half of the maximal activity seen. Read a high AC50 as activity only at high concentration.
